Data published in doi:10.1101/2021.07.29.454247.
No constants are given. Whether binding was seen depends on the method and setting. Binding seen in cells or lysates may run through a third protein. Some binding calls cover weakened binding; strength is not graded here.

Chains of the proteins cited; added tags and fusions are not shown. Residues count along the entry.
UniProt Q00960, residues 27-1482: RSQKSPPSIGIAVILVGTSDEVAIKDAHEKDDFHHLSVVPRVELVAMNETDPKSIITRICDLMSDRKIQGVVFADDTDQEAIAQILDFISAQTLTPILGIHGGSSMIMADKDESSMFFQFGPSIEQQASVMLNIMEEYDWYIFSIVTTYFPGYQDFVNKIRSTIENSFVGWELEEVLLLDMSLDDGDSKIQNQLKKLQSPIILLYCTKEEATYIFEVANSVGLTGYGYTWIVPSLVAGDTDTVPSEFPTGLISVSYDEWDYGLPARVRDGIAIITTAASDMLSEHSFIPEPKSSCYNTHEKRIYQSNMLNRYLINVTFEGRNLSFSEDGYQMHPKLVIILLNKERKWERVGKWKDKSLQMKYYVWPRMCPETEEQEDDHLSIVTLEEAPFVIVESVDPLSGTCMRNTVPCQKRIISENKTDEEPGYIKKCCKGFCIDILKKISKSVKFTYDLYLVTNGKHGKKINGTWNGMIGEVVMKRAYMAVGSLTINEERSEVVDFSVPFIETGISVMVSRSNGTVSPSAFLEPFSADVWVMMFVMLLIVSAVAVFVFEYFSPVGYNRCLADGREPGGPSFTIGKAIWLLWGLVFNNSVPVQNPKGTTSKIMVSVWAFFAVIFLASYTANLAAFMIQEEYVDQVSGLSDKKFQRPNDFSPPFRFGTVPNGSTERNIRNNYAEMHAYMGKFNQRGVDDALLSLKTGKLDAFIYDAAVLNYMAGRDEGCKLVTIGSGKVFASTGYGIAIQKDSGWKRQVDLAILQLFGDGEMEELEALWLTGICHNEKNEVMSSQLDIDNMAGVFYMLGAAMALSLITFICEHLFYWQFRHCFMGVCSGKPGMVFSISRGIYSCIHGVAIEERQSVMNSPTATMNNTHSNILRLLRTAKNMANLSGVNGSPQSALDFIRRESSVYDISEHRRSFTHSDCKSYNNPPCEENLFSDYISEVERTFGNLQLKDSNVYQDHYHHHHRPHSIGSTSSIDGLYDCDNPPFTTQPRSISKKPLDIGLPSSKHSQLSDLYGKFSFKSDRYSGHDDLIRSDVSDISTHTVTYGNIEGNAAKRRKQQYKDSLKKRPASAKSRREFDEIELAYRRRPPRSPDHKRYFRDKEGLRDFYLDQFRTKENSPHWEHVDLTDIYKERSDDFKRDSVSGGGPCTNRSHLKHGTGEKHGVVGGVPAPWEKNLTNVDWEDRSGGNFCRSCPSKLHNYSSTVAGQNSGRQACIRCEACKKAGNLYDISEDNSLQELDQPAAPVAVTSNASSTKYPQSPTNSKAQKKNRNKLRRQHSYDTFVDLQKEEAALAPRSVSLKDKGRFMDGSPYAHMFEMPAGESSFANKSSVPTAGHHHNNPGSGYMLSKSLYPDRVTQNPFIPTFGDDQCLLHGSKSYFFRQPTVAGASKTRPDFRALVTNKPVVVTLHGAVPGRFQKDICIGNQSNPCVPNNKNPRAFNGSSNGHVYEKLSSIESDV

Assays:
[1] = biological target: GluN2B (NMDAR subunit GluN2b) (UniProt Q00960); test: co-IP
[2] = biological target: GluN2A (NMDAR subunit GluN2a) (UniProt Q00959); test: co-IP

B1: TAT-EE3, membrane-permeable disrupting peptide (peptide)
peptide: YGRKKRRQRRREEDTDSSEEMLALAEE
binding [1]: binds
binding [2]: binds
